## Screening data, single-dose tests

From ChEMBL document CHEMBL3988442, “University of Dundee, Small-Polar-MMV Screening Library” (2021).

T. brucei: 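Whole-parasite assay of Trypanosoma brucei over 72 hours; the read-out is not stated. Tested at 30 µM. The record gives no direction; compounds that gave an IC50 in retests scored well above the rest, so higher reads as stronger inhibition. Values scatter widely below zero; nearly all retest evidence comes from the higher of the two concentrations used. About 64,000 compounds were tested under these conditions; 1.5% (about 940) showed 50% or more at least once.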
Toxoplasma: 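Assay of Toxoplasma gondii numbers, read through their beta-galactosidase reporter with a colour substrate. Concentration: 10 µM. The record gives no direction; the compounds picked for IC50 retests had high values, so higher reads as fewer parasites. Of about 67,000 compounds tested this way, about 260 (0.38%) reached 50% or more in at least one test.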
Leishmania in macrophages: 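Cell assay of Leishmania donovani living inside macrophages; the read-out is not stated. Compounds at 30 µM. Direction is inferred from retests: higher values go with stronger inhibition. Of about 69,000 compounds tested this way, about 1,000 (1.5%) reached 50% or more in at least one test.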

Values are the deposited “Percent Effect”, in %. The record does not define 0% and 100%; most values in the screen are far below 50% and negative numbers occur (in some assays of this library far below -100). The compounds are a random part of those screened. Two or more numbers in one place are separate tests of the same structure; such repeats can differ widely. A dash means the value is not listed here; it may have been measured.

SMILES | T. brucei | Toxoplasma | Leishmania in macrophages
CCCS(=O)(=O)N1CCC2(CCN(Cc3cccc(F)c3)C2=O)C1 (stereo not given) | -18.76% | -10.13% | -39.18%
Cc1c(C(=O)N2CCC2(C)C)nnn1-c1cccc2cnccc12 | -31.2% | 1.447% | 7.142%
CCN(CCO)C(=O)c1cc(Cn2c(C)nc3ccccc32)[nH]n1 | -11.29% | -19.3% | 22.11%
CCc1nc(C2CCCN2C(=O)c2ccc(N3CCCC3)nn2)no1 (stereo not given) | -6.249% | -13.77% | 11.01%
CC(C)c1nccn1C(C)C(=O)NC1CCN(S(C)(=O)=O)CC1 (stereo not given) | -30.36% | 2.899% | 3.326%
O=C1CN(CCS(=O)(=O)c2ccc(Cl)cc2)CCN1 | 7.787% | 11.73% | 15.63%
O=C(O)C(F)(F)F.O=C(O)C(F)(F)F.[H][C@@]12CN(Cc3ccncc3)C[C@]1([H])[C@@H](OC)CCN2S(=O)(=O)CC | - | -23.59% | 22.24%
CS(=O)(=O)NC1CCCN(C(=O)Nc2cccnc2N2CCCC2)C1 (stereo not given) | -52.47% | 4.182% | 64.13%
O=C(O)C(F)(F)F.O=C(O)C(F)(F)F.O=C(O)C(F)(F)F.[H][C@]12C[C@@H](Cn3cncn3)N(C(C)C)[C@@]1([H])CCN(Cc1nccn1C)C2 | -0.6835% | 18.09% | 40.96%
O=C(CC1CC1)N1CCn2cc(Cn3cncn3)nc2C1 | -2.593% | 1.885% | 7.923%
CC(C)(O)c1cc(CC2(NCc3ccccc3Cl)COC2)no1 | -3.682% | -2.554% | 25.25%
Cc1cc(CN(C)C(=O)NC(C)Cc2ccco2)no1 (stereo not given) | -7.569% | 9.882% | 32.65%
Cc1nn(C)cc1C(=O)N1CCCC(c2nccn2Cc2cscn2)C1 (stereo not given) | -20.51% | -1.946% | 14.77%
CCOCC(=O)N1Cc2nccn2CC(CN(C)C)C1 (stereo not given) | -40.76% | 7% | 30.27%
CN1CC(=O)N(C2CCCNC2)Cc2c(NC3CCC3)ncnc21 (stereo not given) | - | 12.03% | 0.2335%
[H][C@]12CCN(C(C)=O)CC[C@@]1([H])S(=O)(=O)N(Cc1cccc(Cl)c1)C2 | -13.96% | 0.6761% | -12.27%
O=C(O)C(F)(F)F.O=C(O)C(F)(F)F.[H][C@@]12C[C@@H](C(=O)NC)N(C(C)=O)[C@]1([H])CN(Cc1ccc(C)s1)C2 | -19.68% | -9.013% | 23.72%
O=C(c1cnn(-c2ccccc2)c1)N1CCN(c2cnccn2)CC1 | -0.1934% | 0.1181% | 44.98%
COc1c(CNCCNC(=O)c2ccco2)c(C)nn1C | 9.845% | 2.262% | 1.036%
COc1cccc(-c2noc(C3CCN(Cc4ccncc4)C3)n2)c1 (stereo not given) | 19.13% | 25.04% | 3.19% and 16.02%
CN(C)C(=O)c1cccc(CCNS(C)(=O)=O)c1 | -23.41% | -6.372% | 10.41%
CC(C)OCCOCc1cccc(NC(=O)NCCn2ccnc2)c1 | 27.93% | -4.975% | -2.427%
CNC(=O)CCc1cc(C2CCN(c3cnccn3)CC2)nc(C)n1 | 7.696% | 3.359% | -2.009%
CNc1cc(C)nc(C2CN(Cc3cc[nH]n3)CCO2)c1 (stereo not given) | 19.33% | -12.75% | 22.96%
Cc1n[nH]c(C2CN(CC(=O)NCCc3ccccc3)CCO2)n1 (stereo not given) | -25.86% | -6.883% | -18.32%
CCNC(=O)c1ccc(CNCc2c(C)nn(C)c2N(C)C)cc1 | -23.2% | -6.373% | -21.65%
Cc1ccc(F)c(NC(=O)CCC(=O)N(C)Cc2nc(C)c[nH]2)c1 | -85.19% | 12.77% | 5.631%
Cc1ccc(C(=O)N(Cc2ccc(F)cc2F)C2CC2)c(=O)[nH]1 | -13.26% | 3.58% | 18.76%
CN(C)C(=O)CN1CCCC(CCCc2ccccn2)(C(N)=O)C1 (stereo not given) | -25.13% | -10.22% | -24.48%
O=C(Nc1ccccc1)c1ccc(NCc2ccccc2CO)nn1 | -40.46% | 5.394% | 15.56%
CCNc1cc2c(nn1)CCN(C(=O)c1ccc(C(N)=O)cc1)C2 | -8.975% | -36.03% | 9.386%
CCc1nnc(CNC(=O)CCN2CCN(c3cccc(C)c3)CC2)s1 | -7.616% | -21.33% | -19.8%
COC1COC2(CCN(Cc3ccccc3C)CC2)C1.O=C(O)C(F)(F)F (stereo not given) | -3.278% | -15.63% | 5.617%
CN1CCN(C2CCN(Cc3ccc(Cl)s3)CC2)C1=O | 1.289% | 4.779% | 3.122%
CCCS(=O)(=O)N1CCC2(CCCC(=O)N2C)CC1 | -8.732% | -12.62% | 9.8%
CC(C)c1cc(C(=O)N(c2ccc(F)cn2)C2CCOCC2)on1 | -71.24% | 2.373% | 3.439%
[H][C@]12C[C@H](C(=O)NC)N(S(C)(=O)=O)[C@@]1([H])CN(C(=O)c1ccc(C)o1)C2 | -9.955% | 4.499% | 10.82%
CN1CCN(c2nc(O)cc(Cc3ccccc3F)n2)CC1 | - | 2.455% | -23.88%
Cn1cccc1C(=O)N1CCC2(CCN(C(=O)c3cccnc3)C2)CC1.O=C(O)C(F)(F)F | -55.95% | 4.447% | -1.932%
c1csc(-c2nc(CN3CCOC(Cn4cccn4)C3)cs2)c1 (stereo not given) | 12.17% | -14.3% | 10.77%
O=C(O)C(F)(F)F.O=C(O)C(F)(F)F.c1cncc(COC[C@@H]2CCC[C@]23CNCCO3)c1 | -68.94% | -16.67% | 27.95%
[H][C@]12CC[C@]([H])(CN(C(C)=O)C1)N(S(=O)(=O)c1ccc(C#N)cc1Cl)C2 | -40.77% | 13.08% | 17.01%
O=C(Cc1ccc(F)cc1)NCCNCc1cccc(O)c1 | 10.93% | 18.49% | 20.81%
O=C(O)C(F)(F)F.O=S(=O)(C1CC1)N1CC[C@]2(C[C@@H](Oc3ncccc3F)CO2)C1 | 13.6% | 4.935% | 6.461%
CN(C)C(=O)N1CCCn2nc(CNC(=O)CCc3cccs3)cc2C1 | -46.23% | -4.521% | -13.66%
CN(C)CCN(C)c1nc(CCc2ccccc2)nc2c1cnn2C | -72.32% | -6.648% | -10.75%

Some entries from above, unchanged:

SMILES	T. brucei	Toxoplasma	Leishmania in macrophages
Cc1ccc(C(=O)N(Cc2ccc(F)cc2F)C2CC2)c(=O)[nH]1	-13.26%	3.58%	18.76%
CN(C)C(=O)CN1CCCC(CCCc2ccccn2)(C(N)=O)C1 (stereo not given)	-25.13%	-10.22%	-24.48%
[H][C@]12C[C@H](C(=O)NC)N(S(C)(=O)=O)[C@@]1([H])CN(C(=O)c1ccc(C)o1)C2	-9.955%	4.499%	10.82%
CC(C)(O)c1cc(CC2(NCc3ccccc3Cl)COC2)no1	-3.682%	-2.554%	25.25%
CCOCC(=O)N1Cc2nccn2CC(CN(C)C)C1 (stereo not given)	-40.76%	7%	30.27%